Assay results taken from PMC12670160, “A drug-repurposing screen of FDA- and EMA-approved drugs identifies two NF-κB inhibitors active against eumycetoma” (Journal of Antimicrobial Chemotherapy, 2025).
Counter-ions that a name gives are not always drawn. In all, about 5,300 compounds went through this assay and about 130 (2.5%) showed an effect of 50% or more. Some of the results follow.

system: M. mycetomatis strain mm55; details: primary screen, metabolic activity vs growth control; 96 h, 2 µM; inhibitor

| SMILES | % viability [%] |
| --- | --- |
| O=C1NC(=O)c2c1c(-c1ccccc1)cc1[nH]c3ccc(O)cc3c21 [ONC0001381, pd407824] | 107.7 |
| Nc1c(CC(=O)O)cccc1C(=O)c1ccccc1 [ONC0004808, amfenac sodium monohydrate] | 67.41 |
| COc1cc(N2CCOCC2)ccc1Nc1ncc(Cl)c(Nc2ccccc2NS(C)(=O)=O)n1 [ONC0004450, czc54252] | 127.1 |
| COc1ccc([C@@H]2CC(=O)c3c(O)cc(O)cc3O2)cc1O [ONC0004957, hesperetin] | 99.39 |
| CCOC(=O)c1cc(C#N)c(N2CCC(C(=O)NS(=O)(=O)Cc3ccccc3)CC2)nc1C [ONC0001847, azd1283] | 124 |
| CCCOC(=O)c1ccccc1 [ONC0004461, propylbenzoate] | 80.68 |
| CCCc1cc(C)[nH]c(=O)c1CNC(=O)c1cc(-c2ccc(N3CCN(C(C)C)CC3)nc2)cc2c1cnn2C(C)C [ONC0004378, unc1999] | 94.47 |
| CCOC(=O)c1ccccc1OC(=O)CCCCCCCC(=O)Oc1ccccc1C(=O)OCC [ONC0003554, tu2100] | 98.87 |
| CC1(C)OC(=O)C(OCC2CC2)=C1c1ccc(S(C)(=O)=O)cc1 [ONC0003938, firocoxib] | 78.14 |
| CCN(CC)CCOC(=O)C1(C2CCCCC2)CCCCC1 [ONC0000555, dicyclomine hydrochloride] | 77.77 |
| Oc1ccccc1 [ONC0005379, phenol] | 99.71 |
| Oc1cc(O)c2c(c1)O[C@H](c1ccc(O)c(O)c1)[C@@H](O)C2 [ONC0003313, cianidanol catechin] | 78.22 |
| C[N+]1(C)CCC(OC(=O)C(c2ccccc2)c2ccccc2)CC1 [ONC0003592, 4damp] | 92.53 |
| O=c1c(-c2ccc(O)cc2)coc2c(C3OC(CO)C(O)C(O)C3O)c(O)ccc12 (stereo not shown) [ONC0003500, kakonein] | 67.54 |
| CO[C@H]1C[C@H](O[C@H]2[C@H](C)O[C@@H](O[C@@H]3/C(C)=C/C[C@@H]4C[C@@H](C[C@]5(C=C[C@H](C)[C@@H](C6CCCCC6)O5)O4)OC(=O)[C@@H]4C=C(C)[C@@H](O)[C@H]5OC/C(=C\C=C\[C@@H]3C)[C@]54O)C[C@@H]2OC)O[C@@H](C)[C@@H]1O [ONC0003980, doramectin] | 71.87 |
| COc1c(C)c(C(=O)c2ccc(N)c(C(=O)O)c2)n2ccccc12 [ONC0005122, ssr128129e ssr] | 84.1 |
| CN1c2cc3c(cc2N=C(c2ccc(C(=O)O)cc2)c2ccccc21)C(C)(C)CCC3(C)C [ONC0003012, le135] | 59.64 |
| CN1C(=O)C(N2CCCCC2)S/C1=C\C(=O)O (stereo not shown) [ONC0002126, ozolinone] | 65.42 |
| C=Cc1cc(O)cc2nc(-c3ccc(O)c(F)c3)oc12 [ONC0000805, prinaberel] | 78.92 |
| OCCNCCCOc1cccc(Cl)c1Cl [ONC0004410, 23dcpe] | 142.2 |

| SMILES | % viability [%] |
| --- | --- |
| O=C(Nc1ccc(Cl)cc1)Nc1ccc(Cl)c(Cl)c1 [ONC0003407, triclocarban] | 109.1 |
| CN[C@@H](C)C(=O)N[C@H](C(=O)N1CCC[C@H]1c1nc(C(=O)c2ccc(F)cc2)cs1)C1CCCCC1 [ONC0001956, lcl161] | 79.23 |
| O=C1c2c(O)cccc2Cc2cccc(O)c21 [ONC0003243, anthralin] | 102.8 |
| CC[N+](C)(CC)CCOC(=O)C(O)(c1ccccc1)C1CCCCC1 (stereo not shown) [ONC0004014, oxyphenonium bromide] | 59.72 |
| C[C@H](Nc1cc2c(-c3ccc4c(c3)OCO4)noc2cn1)c1ccccc1 [ONC0002795, tcs7005] | 125 |
| O/N=C/c1ccc(-c2ccc(O)c(F)c2)c(Cl)c1O [ONC0000844, ferb033] | 68.86 |
| O=C(O)c1ccc(SSc2ccc(C(=O)O)cn2)nc1 [ONC0005543, carboxypyridinedisulfide] | 91.46 |
| Cc1cc2ncc(C(=O)NCC(C)(C)NCC(=O)N3CCC[C@H]3C#N)cn2n1 [ONC0001033, anagliptin] | 72 |
| COc1ccc(-c2ccc3c(N4CCOC[C@@H]4C)nc(N4CCOC[C@@H]4C)nc3n2)cc1CO [ONC0004858, azd8055] | 116 |
| COc1cc(C(=O)OCCCN2CCCN(CCCOC(=O)c3cc(OC)c(OC)c(OC)c3)CC2)cc(OC)c1OC [ONC0003640, dilazep] | 75.17 |
| COC(=O)C1=C(C)NC(C)=C([N+](=O)[O-])C1c1ccccc1C(F)(F)F (stereo not shown) [ONC0000082, bayk8644] | 91.53 |
| CC(C)Cc1ccc(C(C)C(=O)O)cc1.NCCCC[C@H](N)C(=O)O (stereo not shown) [ONC0004512, ibuprofen lysine neoprofen] | 55.08 |
| O=C1C[C@@H](c2ccccc2)Oc2cc(O)cc(O)c21 [ONC0005480, pinocembrin] | 81.43 |
| Cc1ccc(S(=O)(=O)c2ccc([N+](=O)[O-])o2)cc1 [ONC0005071, nsc697923] | 75.2 |
| COc1cc2c(cc1OC)C(C)NCC2 (stereo not shown) [ONC0002871, isoquinoline67dimethoxy1methyl1234tetrahydro] | 145 |
| CN(C)C/C=C/C(=O)Nc1ccc(C(=O)Nc2cccc(Nc3ncc(Cl)c(-c4c[nH]c5ccccc45)n3)c2)cc1 [ONC0002074, thz1] | 55.81 |
| NC(=O)CN1CCCC1=O [ONC0004070, piracetam] | 91.68 |
| O=C1NC(=O)C(c2cnc3ccccn23)=C1c1cn2c3c(cc(F)cc13)CN(C(=O)N1CCCCC1)CC2 [ONC0001579, ly2090314] | 86.82 |
| OCCN1CCN(CC/C=C2/c3ccccc3Sc3ccc(C(F)(F)F)cc32)CC1 [ONC0002016, flupentixol] | 115.8 |
| N=C(N)NCCC[C@H](NC(=O)c1sccc1NS(=O)(=O)c1cccc2nsnc12)C(=O)O [ONC0004149, eg00229] | 88.01 |

Some of the entries so far, with bars between the fields:
SMILES | % viability [%]
CN[C@@H](C)C(=O)N[C@H](C(=O)N1CCC[C@H]1c1nc(C(=O)c2ccc(F)cc2)cs1)C1CCCCC1 [ONC0001956, lcl161] | 79.23
O=C1c2c(O)cccc2Cc2cccc(O)c21 [ONC0003243, anthralin] | 102.8
CC[N+](C)(CC)CCOC(=O)C(O)(c1ccccc1)C1CCCCC1 (stereo not shown) [ONC0004014, oxyphenonium bromide] | 59.72
C[C@H](Nc1cc2c(-c3ccc4c(c3)OCO4)noc2cn1)c1ccccc1 [ONC0002795, tcs7005] | 125
O/N=C/c1ccc(-c2ccc(O)c(F)c2)c(Cl)c1O [ONC0000844, ferb033] | 68.86
O=C(O)c1ccc(SSc2ccc(C(=O)O)cn2)nc1 [ONC0005543, carboxypyridinedisulfide] | 91.46
Cc1cc2ncc(C(=O)NCC(C)(C)NCC(=O)N3CCC[C@H]3C#N)cn2n1 [ONC0001033, anagliptin] | 72
COc1ccc(-c2ccc3c(N4CCOC[C@@H]4C)nc(N4CCOC[C@@H]4C)nc3n2)cc1CO [ONC0004858, azd8055] | 116
COc1cc(C(=O)OCCCN2CCCN(CCCOC(=O)c3cc(OC)c(OC)c(OC)c3)CC2)cc(OC)c1OC [ONC0003640, dilazep] | 75.17
COC(=O)C1=C(C)NC(C)=C([N+](=O)[O-])C1c1ccccc1C(F)(F)F (stereo not shown) [ONC0000082, bayk8644] | 91.53
CC(C)Cc1ccc(C(C)C(=O)O)cc1.NCCCC[C@H](N)C(=O)O (stereo not shown) [ONC0004512, ibuprofen lysine neoprofen] | 55.08
O=C1C[C@@H](c2ccccc2)Oc2cc(O)cc(O)c21 [ONC0005480, pinocembrin] | 81.43
